# Results published in PMC5346732.
# By UniProt entry, the sequences of proteins in these tests, tags left out.
# UniProt P35222: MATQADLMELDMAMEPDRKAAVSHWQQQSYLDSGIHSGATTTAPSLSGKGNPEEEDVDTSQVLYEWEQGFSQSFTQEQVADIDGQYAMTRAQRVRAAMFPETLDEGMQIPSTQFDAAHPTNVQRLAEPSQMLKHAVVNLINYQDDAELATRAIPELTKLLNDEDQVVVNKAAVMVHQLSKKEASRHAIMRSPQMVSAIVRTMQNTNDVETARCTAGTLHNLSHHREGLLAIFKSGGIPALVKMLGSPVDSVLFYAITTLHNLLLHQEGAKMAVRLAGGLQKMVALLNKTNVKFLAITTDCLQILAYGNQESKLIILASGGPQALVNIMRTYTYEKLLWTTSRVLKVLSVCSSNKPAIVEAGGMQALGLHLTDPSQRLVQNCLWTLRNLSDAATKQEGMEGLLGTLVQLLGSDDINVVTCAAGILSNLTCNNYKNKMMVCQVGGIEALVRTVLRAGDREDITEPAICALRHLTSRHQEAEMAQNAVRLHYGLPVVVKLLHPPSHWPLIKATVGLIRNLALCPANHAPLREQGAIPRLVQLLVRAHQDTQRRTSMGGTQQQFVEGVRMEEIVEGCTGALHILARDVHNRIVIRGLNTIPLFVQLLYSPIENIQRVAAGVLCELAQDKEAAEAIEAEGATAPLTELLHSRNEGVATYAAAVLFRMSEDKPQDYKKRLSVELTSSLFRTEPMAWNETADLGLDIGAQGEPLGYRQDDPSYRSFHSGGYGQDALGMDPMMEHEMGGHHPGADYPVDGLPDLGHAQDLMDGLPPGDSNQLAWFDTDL
# UniProt Q93008: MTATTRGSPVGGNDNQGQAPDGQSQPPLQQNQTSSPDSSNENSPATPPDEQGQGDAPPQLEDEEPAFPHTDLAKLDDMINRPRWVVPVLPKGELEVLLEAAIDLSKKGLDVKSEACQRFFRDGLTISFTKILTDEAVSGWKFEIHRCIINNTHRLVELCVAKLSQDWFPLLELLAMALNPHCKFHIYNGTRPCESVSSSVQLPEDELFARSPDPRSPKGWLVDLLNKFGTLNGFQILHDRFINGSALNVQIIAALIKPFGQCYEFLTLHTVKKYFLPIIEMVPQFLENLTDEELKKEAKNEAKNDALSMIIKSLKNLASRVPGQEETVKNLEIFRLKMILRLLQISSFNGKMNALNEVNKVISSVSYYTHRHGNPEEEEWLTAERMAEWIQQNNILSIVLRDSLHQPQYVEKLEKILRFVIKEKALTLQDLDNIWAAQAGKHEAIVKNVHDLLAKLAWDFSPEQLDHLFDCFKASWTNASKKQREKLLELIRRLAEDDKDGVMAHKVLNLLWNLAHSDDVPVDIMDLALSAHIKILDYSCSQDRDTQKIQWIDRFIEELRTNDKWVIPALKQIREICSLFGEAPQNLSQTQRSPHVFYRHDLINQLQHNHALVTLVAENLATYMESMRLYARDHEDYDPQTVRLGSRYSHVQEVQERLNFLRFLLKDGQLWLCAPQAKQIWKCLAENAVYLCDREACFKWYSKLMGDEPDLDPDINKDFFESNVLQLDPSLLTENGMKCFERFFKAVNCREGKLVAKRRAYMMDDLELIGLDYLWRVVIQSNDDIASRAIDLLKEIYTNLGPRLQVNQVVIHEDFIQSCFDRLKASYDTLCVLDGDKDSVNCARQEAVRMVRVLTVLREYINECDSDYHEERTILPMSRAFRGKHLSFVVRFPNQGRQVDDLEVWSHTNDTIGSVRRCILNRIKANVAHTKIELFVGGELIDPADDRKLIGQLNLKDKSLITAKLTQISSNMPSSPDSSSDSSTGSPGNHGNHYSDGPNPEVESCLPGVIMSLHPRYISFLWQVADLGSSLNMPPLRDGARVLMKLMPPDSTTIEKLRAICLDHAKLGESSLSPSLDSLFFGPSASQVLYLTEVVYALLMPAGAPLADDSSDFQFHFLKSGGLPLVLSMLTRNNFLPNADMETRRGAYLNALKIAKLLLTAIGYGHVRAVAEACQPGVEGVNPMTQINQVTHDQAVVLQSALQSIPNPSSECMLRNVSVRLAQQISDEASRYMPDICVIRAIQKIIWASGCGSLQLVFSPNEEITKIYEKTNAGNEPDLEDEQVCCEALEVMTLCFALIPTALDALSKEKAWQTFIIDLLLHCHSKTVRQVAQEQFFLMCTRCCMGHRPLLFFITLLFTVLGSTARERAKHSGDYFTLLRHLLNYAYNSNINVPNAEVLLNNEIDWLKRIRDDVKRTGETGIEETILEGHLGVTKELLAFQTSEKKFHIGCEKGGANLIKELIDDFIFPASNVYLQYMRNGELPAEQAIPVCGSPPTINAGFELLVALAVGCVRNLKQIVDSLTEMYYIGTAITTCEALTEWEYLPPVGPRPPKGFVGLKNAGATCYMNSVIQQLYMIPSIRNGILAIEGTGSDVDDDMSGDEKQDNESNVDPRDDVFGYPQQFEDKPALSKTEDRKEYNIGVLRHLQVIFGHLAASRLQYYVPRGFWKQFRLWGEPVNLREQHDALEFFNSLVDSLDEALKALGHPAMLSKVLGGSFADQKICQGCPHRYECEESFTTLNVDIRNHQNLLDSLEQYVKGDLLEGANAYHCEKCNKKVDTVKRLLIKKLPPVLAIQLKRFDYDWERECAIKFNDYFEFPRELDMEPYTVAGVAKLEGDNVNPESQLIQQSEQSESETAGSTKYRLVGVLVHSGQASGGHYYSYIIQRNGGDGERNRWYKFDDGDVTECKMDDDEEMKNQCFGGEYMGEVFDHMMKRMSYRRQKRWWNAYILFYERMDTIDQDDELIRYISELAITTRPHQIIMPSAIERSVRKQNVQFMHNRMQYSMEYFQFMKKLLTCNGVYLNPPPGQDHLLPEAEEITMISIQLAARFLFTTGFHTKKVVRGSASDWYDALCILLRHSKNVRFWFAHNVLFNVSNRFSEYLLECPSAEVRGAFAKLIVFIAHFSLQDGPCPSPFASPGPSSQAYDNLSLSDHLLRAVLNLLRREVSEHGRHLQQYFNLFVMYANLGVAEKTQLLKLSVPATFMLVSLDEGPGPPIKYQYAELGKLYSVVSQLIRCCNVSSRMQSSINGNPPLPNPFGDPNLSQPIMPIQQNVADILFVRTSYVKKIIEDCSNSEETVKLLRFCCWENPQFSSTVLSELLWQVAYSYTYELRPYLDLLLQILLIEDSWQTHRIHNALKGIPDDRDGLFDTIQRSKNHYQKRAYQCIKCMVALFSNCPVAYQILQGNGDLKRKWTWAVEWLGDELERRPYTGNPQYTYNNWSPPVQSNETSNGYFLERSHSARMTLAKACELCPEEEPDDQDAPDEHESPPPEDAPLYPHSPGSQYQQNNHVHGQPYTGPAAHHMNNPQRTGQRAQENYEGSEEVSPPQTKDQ
# No constants are given. Whether binding was seen depends on the method and setting. Binding seen in cells or lysates may run through a third protein. Some results given as binding are weak or reduced against the parent protein; the word gives no strength.
# Experiments:
# β-catenin = β-catenin (UniProt P35222); experiment: co-IP; HEK293T cells treated with pCMV-β-catenin plasmid for 48 h; lysate immunoprecipitated with USP9X antibody or with β-catenin antibody, western blot
# [1] = biological target: USP9X (human (endogenous in HEK293T)) (UniProt Q93008); experiment: as above
Substance,binding (β-catenin),binding [1]
USP9X (from UniProt Q93008 1-2554) (enzyme),binds,–
β-catenin (from UniProt P35222 1-781),–,binds
